Measurements published in paper PMC12809078.

Protein sequences, listed by entry. Tags and fused reporters are not part of them. Lines headed by an entry give the natural chain unless they say otherwise; changes in a name come on top.
UniProt Q9H9B1: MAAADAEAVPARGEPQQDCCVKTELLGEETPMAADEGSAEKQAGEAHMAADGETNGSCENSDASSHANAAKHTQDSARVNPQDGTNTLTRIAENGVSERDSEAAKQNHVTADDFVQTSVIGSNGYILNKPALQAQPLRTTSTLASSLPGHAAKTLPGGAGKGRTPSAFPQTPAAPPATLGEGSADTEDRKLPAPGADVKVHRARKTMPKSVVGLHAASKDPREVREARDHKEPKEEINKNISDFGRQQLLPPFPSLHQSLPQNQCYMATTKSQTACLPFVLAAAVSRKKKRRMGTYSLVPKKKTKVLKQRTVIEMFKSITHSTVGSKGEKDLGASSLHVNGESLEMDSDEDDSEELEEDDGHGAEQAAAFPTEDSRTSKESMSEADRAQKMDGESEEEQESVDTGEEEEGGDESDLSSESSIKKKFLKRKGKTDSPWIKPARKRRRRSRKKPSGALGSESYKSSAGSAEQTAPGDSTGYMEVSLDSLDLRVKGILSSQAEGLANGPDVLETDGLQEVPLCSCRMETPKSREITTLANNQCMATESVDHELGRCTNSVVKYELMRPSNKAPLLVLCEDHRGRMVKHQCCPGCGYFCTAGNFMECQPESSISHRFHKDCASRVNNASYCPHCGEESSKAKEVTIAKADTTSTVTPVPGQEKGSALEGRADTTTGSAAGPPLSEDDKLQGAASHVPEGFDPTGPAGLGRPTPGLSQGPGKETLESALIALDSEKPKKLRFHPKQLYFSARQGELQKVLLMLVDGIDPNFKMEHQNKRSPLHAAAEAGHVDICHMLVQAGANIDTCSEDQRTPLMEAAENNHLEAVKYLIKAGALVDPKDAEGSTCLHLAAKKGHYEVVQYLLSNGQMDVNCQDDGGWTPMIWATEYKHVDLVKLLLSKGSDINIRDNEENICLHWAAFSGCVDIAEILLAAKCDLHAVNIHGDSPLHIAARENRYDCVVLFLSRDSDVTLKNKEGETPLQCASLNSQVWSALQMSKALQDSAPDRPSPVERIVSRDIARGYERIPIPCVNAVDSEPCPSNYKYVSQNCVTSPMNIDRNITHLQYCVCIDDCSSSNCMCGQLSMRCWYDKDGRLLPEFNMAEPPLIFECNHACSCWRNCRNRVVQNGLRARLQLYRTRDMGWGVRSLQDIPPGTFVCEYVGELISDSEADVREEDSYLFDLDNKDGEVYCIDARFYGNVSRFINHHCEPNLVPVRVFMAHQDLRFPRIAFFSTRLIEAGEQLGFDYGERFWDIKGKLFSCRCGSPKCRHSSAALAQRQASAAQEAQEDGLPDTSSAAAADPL

Target: CtBP2-(1-445)-FLAG (human) (UniProt P56545)
Experiment: co-IP; HEK293T co-transfected with CtBP2-FLAG and Myc-tagged G9a or GLP; anti-FLAG resin, FLAG peptide elution, Western blot

binding: binds
Substance: GLP-(1-1298)^ΔPre-SET-Myc (from UniProt Q9H9B1)

No constants are given. Whether binding was seen depends on the method and setting. In cells and extracts the contact can be indirect. Binding calls can cover weak binding; strength is not graded here.
